Assay results published in ChEMBL document CHEMBL4808225, “Discovery and Characterization of Selective and Ligand-Efficient DYRK Inhibitors” (J Med Chem, 2021).

Protein sequences, listed by entry. Tags and fused reporters are not part of them.
UniProt Q9Y463, whole entry: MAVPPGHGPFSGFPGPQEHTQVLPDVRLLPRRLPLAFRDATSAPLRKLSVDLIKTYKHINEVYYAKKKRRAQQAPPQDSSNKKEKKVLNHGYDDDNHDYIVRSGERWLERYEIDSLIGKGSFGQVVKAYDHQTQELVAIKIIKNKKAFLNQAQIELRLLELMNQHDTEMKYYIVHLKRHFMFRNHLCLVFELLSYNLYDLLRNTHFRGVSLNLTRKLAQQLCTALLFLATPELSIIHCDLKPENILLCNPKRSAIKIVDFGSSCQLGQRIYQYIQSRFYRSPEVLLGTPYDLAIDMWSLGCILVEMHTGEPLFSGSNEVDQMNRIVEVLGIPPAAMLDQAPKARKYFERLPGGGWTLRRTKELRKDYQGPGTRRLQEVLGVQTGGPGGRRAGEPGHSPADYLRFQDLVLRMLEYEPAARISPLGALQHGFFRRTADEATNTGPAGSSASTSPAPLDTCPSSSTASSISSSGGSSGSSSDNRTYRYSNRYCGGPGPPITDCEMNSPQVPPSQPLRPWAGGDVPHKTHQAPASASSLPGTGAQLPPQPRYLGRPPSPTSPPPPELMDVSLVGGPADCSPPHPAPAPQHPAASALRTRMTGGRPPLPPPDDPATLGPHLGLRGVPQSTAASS

Target: Dual specificity tyrosine-phosphorylation-regulated kinase 1B (Homo sapiens, UniProt Q9Y463)
Experiment: Binding affinity to wild-type human full length DYRK1B (M1 to S629 residues) expressed in bacterial expression system measured after 1 hr by competitive binding assay

Kd: 56 nM
SMILES: CN(C)c1nccc(-c2cnn3ncccc23)n1
